The results in this text go back to patent US20210380682A1.

Protein sequences, listed by entry. Tags and fused reporters are not part of them. Residues count along the entry.
UniProt P01850, residues 1-129: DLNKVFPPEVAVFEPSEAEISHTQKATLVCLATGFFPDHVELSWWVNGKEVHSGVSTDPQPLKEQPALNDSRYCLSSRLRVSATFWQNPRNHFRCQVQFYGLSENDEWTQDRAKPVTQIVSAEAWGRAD

Where a chain is given by its changes, count along the chain named. No constants are given. Whether binding was seen depends on the method and setting. Some binding calls cover weakened binding; strength is not graded here.

The target of experiment [1] is human TRBC1 (T cell receptor beta chain constant domain 1), construct BIM0444 (human) (UniProt P01850). Kind of experiment: ELISA: antibody coated at 1 ug/mL, hTRBC1 BIM0444 titrated 100 nM to 6.4 pM, anti-his tag HRP detection. A general note: In an ELISA, binding on a coated surface is turned into a signal by an enzyme label.
The target is the same in experiment [2]. Kind of experiment: ELISA (FIG. 7).
For experiment [3] the target is unchanged. Kind of experiment: BLI (Octet) (FIG. 8). In general terms: BLI is a label-free optical method that tracks binding on a fibre tip over time.
The target is the same in experiment [4]. Briefly: BLI (Octet): hTRBC1 BIM0444 loaded on Protein A sensors, Fab 50 nM to 0.78 nM.

B1: JOVI.1 (murine anti-TRBC1 antibody), bivalent mAb (antibody, V domains shown)
VH: EVRLQQSGPDLIKPGASVKMSCKASGYTFTGYVMHWVKQRPGQGLEWIGFINPYNDDIQSNERFRGKATLTSDKSSTTAYMELSSLTSEDSAVYYCARGAGYNFDGAYRFFDFWGQGTTLTVSS
VL: DVVMTQSPLSLPVSLGDQASISCRSSQRLVHSNGNTYLHWYLQKPGQSPKLLIYRVSNRFPGVPDRFSGSGSGTDFTLKISRVEAEDLGIYFCSQSTHVPYTFGGGTKLEIK
For B1, the binding result in experiment [1] and in experiment [2] was “binds” in each case.

B2: BIM0446, JOVI.1 Fab (Fab, V domains shown)
VH: B1 VH
VL: B1 VL
For the molecule B2, the binding entry in experiment [3] and in experiment [4] was “binds” throughout.

B3: BIM0460, humanized JOVI.1 Fab (Fab, V domains shown)
VH: QVQLVQSGAEVKKPGSSVKVSCKASGYTFTGYVMHWVRQAPGQGLEWMGFINPYNDDIQSNERFRGRVTITSDKSTTTAYMELSSLRSEDTAVYYCARGAGYNFDGAYRFFDFWGQGTLVTVSS
VL: B1 VL with S14T, D17Q, Q18P, L42Q, K44R, K50R, L88V, I90V, L109V
On to B3, for which the binding result in experiment [3] and in experiment [4] was “binds” each time.
